The results in this text go back to ChEMBL document CHEMBL2177055 (J Med Chem, 2012).

This series in a line: in vitro. The note with it: human, Caco-2.

Structures are written as SMILES.

Broadly, the Papp is a coefficient for how fast a substance crosses the barrier. Read a low Papp as poor permeation. `CN1CCN(S(=O)(=O)c2ccc(-c3cnc(N)c(C(=O)Nc4cnccc4CN4CCCC4)n3)cc2)CC1` had a Papp at 2 h, 10 µM of 2.3 ×10⁻⁶ cm/s.
